This experiment concerns the target T1, carboxy terminal domain of Human Pancreatic Lipase (human) (UniProt P16233).
T1 sequence (biotinylated for selection, looked up): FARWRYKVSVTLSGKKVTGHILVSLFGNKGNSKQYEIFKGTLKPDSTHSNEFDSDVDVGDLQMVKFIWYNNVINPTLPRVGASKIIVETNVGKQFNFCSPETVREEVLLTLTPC
Put plainly: phage display selection in solution with the biotinylated carboxy terminal domain of HPL, capture on streptavidin beads.

No constants are given. Whether binding was seen depends on the method and setting. Some results given as binding are weak or reduced against the parent protein; the word gives no strength.

B1: HPL#22 (VHH)
VHH: QVQLQESGGGLVQAGGSLRLSCAASGSIRSISIMTWYRQAPGKERELVARMSSDGTTSYTDSMKGRFTISRDNAKNTVYLHMNNLKPEDTAVYYCKALISSYDGSWNDYGGQGTQVTVSS
With B1, the binding result was “binds”.

Source of the values: patent US7361741.
